Measured values from patent US8759010B2, “Host cell kinases as targets for antiviral therapies against HCV infection” (INSERM (Institut National de la Sante et de la Recherche …, priority 2008, dated 2014).
At least one compound was matched to its structure with a doubt left.

System: subgenomic HCV JFH1 replicon
Assay: HCV replication, subgenomic JFH1 replicon, Northern blot
Format: cell-based
From the text: HEK 293T, Huh7 and Huh7.5.1 cells used in the present study have previously been described (Bartosch, 2003; Barth, 2003; Zhong, 2005). Primary human hepatocytes were isolated and cultured as previously described (David, 1998, which is incorporated herein by reference in its entirety). Subgenomic HCV replicon JFH1-SGR used herein has also previously been described (Kato, 2005).
A 9.7 kb fragment derived from plasmid […] (Wakita, 2005) digested with XbaI and EcoRI was labeled with α^32P-CTP using NEBlot kit (NEB, USA). Northern blotting was performed according to standard protocols (F. M. Ausubel et al., “Current Protocols in Molecular Biology”, John Wiley 1 Sons, Inc., 2007).
Electroporation of RNA derived from plasmids pSGR-JFH1 was performed as previously described (Lan, 2008). Four hours after electroporation, cells were incubated with protein kinase inhibitors in cell culture supernatant for 24 hours. Total RNA was isolate and analyzed by Northern blot analysis of HCV RNA as described (Lohmann, 1999).

Cc1nc(Nc2ncc(C(=O)Nc3c(C)cccc3Cl)s2)cc(N2CCN(CCO)CC2)n1 [Dasatinib]
HCV replication (Huh7.5 cells electroporated with subgenomic JFH1 replicon RNA, 24 h incubation, Northern blot, FIG. 9C): without markedly modulating replication | Effect on viral replication (HCV subgenomic replicons) (JFH1 strain subgenomic replicon, Example 1): specifically targeting HCV entry and not virus-host interactions during viral replication
